Reference: patent US20020051978A1, “Methods and compositions for the identification, assessment, prevention and therapy of human cancers” (priority 2000, published 2002)
“And” between values parts separate entries of the source, which are not always exact repeats. Identical values can stand only once. The name of at least one read-out is uncertain.

System: 60 cancer cell lines (NCI 60 cancer cell line series)
Assay: NCI-DTP in vitro cancer screen, sulforhodamine B (SRB) growth inhibition, 48 hour exposure
Type: cell-based, human
Experimental: Cancer Cell Line Preparation. Sixty cancer cell lines were obtained from the National Cancer Institute Developmental Therapeutics Program (NCI-DTP). Procedures for growing cells and testing compounds have been described previously (Scudiero et al., Cancer Res. 1988, 48:4827-4833; Stinson et al., Anticancer Res.; Myers et al., Electrophoresis 1997, 18:647-653). Cells are plated on day 0 at a density individualized for each cell line so that they will generally be sub-confluent at the end of the assay period. On day 1, a compound is added in the format for a duplicate-well, 5-dose, ten-fold interval dose response study.
No-drug, no-cell and no-growth controls are included. On day 3 the cells are processed for staining with sulforhodamine B (SRB), which reflects the amount of cell mass present at the end of a 48 hour exposure to the test agent. From dose response curves based on the SRB data, various parameters can be determined. The one used in the present study is the G15o, defined as the concentration of compound required to inhibit growth of the cell line by 50%. More precisely, the quantity used in the calculation to be described is the potency measure -log{GI50}.
Activity database (A). Table IA, consisting of the growth inhibition (GI5o) values for the 60 cell lines and 24 compounds, was created from the NCI-DTP in vitro cancer screen database. This subset of compounds was selected from the larger 23,000 compound database available from the DTP. The compounds were selected on the basis of their known mechanism of action and chemical structure. The average potency—log{GI50} was extracted from the comma-delimited text files available through the Web at http://www.nci.nih.gov/intra/lmp/jnwbio.htmrl. Subsequently, these log{GI5o} values were inspected manually and classified as indicating either Low, Medium or High sensitivity to each compound.

SMILES: COc1cccc2c1C(=O)c1c(O)c3c(c(O)c1C2=O)C[C@@](O)(C(C)=O)C[C@@H]3O[C@H]1C[C@H](N)[C@H](O)[C@H](C)O1 [Daunorubicin]
- classification of cell line as Low(1), Medium(2) or High(3) sensitivity to compound (Breast HS-578T CL5006): 1 and 2
- classification of cell line as Low(1), Medium(2) or High(3) sensitivity to compound (CNS SF-539 CL12016): 2 and 3
- classification of cell line as Low(1), Medium(2) or High(3) sensitivity to compound (Colon KM12 CL4017): 1 and 2
- classification of cell line as Low(1), Medium(2) or High(3) sensitivity to compound (Leukemia K562(I) CL7005): 2 and 3
- classification of cell line as Low(1), Medium(2) or High(3) sensitivity to compound (Leukemia RPMI-8226(I) CL7010): 2 and 3
- classification of cell line as Low(1), Medium(2) or High(3) sensitivity to compound (Melanoma LOX IMVI CL10001): 2 and 3
- classification of cell line as Low(1), Medium(2) or High(3) sensitivity to compound (Melanoma SK-MEL-2 CL10005): 1 and 2
- sensitivity class Ovarian SK-OV-3 CL6011 (cell line Ovarian SK-OV-3, CL6011): 1 and 2
